Data taken from article PMC7179445 (Molecules, 2020).

Experiment: general procedure: solution-phase peptide synthesis; ethyl chloroformate / N-methylmorpholine (mixed anhydride)
Conditions: for cyclisation yield: cyclisation step

Substance | step yield (late stage modification step) [%] | further results
Cyclo-(N^α-dipicolinoyl)-bis-[(L-ILe-L-ILe-L-Phe)-L-Lys methyl ester] | – | cyclisation yield: 82%
Cyclo-(N^α-dipicolinoyl)-bis-[(L-ILe-L-Ile-L-Phe)-L-Lys carboxylic acid] | 70 | –
Cyclo-(N^α-dipicolinoyl)-bis-[(L-ILe-L-Phe-L-Ile)-L-Lys carboxylic acid] | 65 | –
Cyclo-(N^α-dipicolinoyl)-bis-[(L-ILe-L-Phe-L-Ile)-L-Lys methyl ester] | – | cyclisation yield: 70%
Cyclo-(N^α-dipicolinoyl)-bis-[(L-Ile-L-Ile-L-Phe)-L-Lys acid hydrazide] | 75 | –
Cyclo-(N^α-dipicolinoyl)-bis-[(L-Ile-L-Phe-L-Ile)-L-Lys acid hydrazide] | 70 | –
Cyclo-(N^α-dipicolinoyl)-bis-[(L-Phe-L-ILe-L-Ile)-L-Lys acid hydrazide] | 74 | –
Cyclo-(N^α-dipicolinoyl)-bis-[(L-Phe-L-ILe-L-Ile)-L-Lys carboxylic acid] | 90 | –
Cyclo-(N^α-dipicolinoyl)-bis-[(L-Phe-L-ILe-L-Ile)-L-Lys methyl ester] | – | cyclisation yield: 85%
N^α-Dipicolinoyl-bis[L-ILe-L-L-Phe-ILe-methyl ester] | – | step yield (coupling step): 73%
N^α-Dipicolinoyl-bis[L-ILe-L-Phe-L-ILe-carboxylic acid] | 82 | –
N^α-Dipicolinoyl-bis[L-Phe-L-ILe-L-ILe-carboxylic acid] | 66 | –
N^α-Dipicolinoyl-bis[L-Phe-L-ILe-L-ILe-methyl ester] | – | step yield (coupling step): 70%
